Several values for one entry are separate records, joined by “and”; a condition that tells them apart may be missing. Identical values can stand only once. The source gives many values for each of these; only a part stands here.
Key:
SK-HEP-1 cells [1] = assay: Protection of endothelial cells from H2O2-induced cell death (MTS assay); type: cell-based, Human; settings: single replicates n = 6
Protocol: The effect of increasing concentrations of NACCbl and GSCbl to protect endothelial cells from the effect of H2O2 was assessed. […] Cell viability was determined by MTS® assay. […] Cell viability was determined by MTS® assay. […] Cell viability was determined by MTS® assay.

SK-HEP-1 cells [2] = assay: NACCbl protection from homocysteine with Hsp32/Hsp70 inhibited by Sn(IX) protoporphyrin, quercitin or siRNA (MTS assay); type: cell-based, Human; settings: NACCbl 30 μM two hours with/without siRNA for Hsp32, Hsp70
[3] = cobalamin 30 μM two hours, then H2O2 0 μM
[4] = cobalamin 30 μM two hours, then H2O2 0.781 μM two hours
[5] = cobalamin 30 μM two hours, then H2O2 1.56 μM two hours
[6] = cobalamin 30 μM two hours, then H2O2 3.125 μM two hours
[7] = cobalamin 30 μM two hours, then H2O2 6.25 μM two hours
[8] = cobalamin 30 μM two hours, then H2O2 12.5 μM two hours
[9] = cobalamin 30 μM two hours, then H2O2 25 μM two hours
[10] = cobalamin 30 μM two hours, then H2O2 50 μM two hours
[11] = cobalamin 30 μM two hours, then H2O2 100 μM two hours
[12] = cobalamin 30 μM two hours, then H2O2 200 μM two hours
[13] = cobalamin concentration 1.562 (μM) 2 hours, then 25 μM H2O2 24 hours
[14] = cobalamin concentration 3.125 (μM) 2 hours, then 25 μM H2O2 24 hours
[15] = cobalamin concentration 6.25 (μM) 2 hours, then 25 μM H2O2 24 hours
[16] = cobalamin concentration 12.5 (μM) 2 hours, then 25 μM H2O2 24 hours
[17] = cobalamin concentration 25 (μM) 2 hours, then 25 μM H2O2 24 hours
[18] = cobalamin concentration 50 (μM) 2 hours, then 25 μM H2O2 24 hours
[19] = cobalamin concentration 100 (μM) 2 hours, then 25 μM H2O2 24 hours
[20] = cobalamin concentration 200 (μM) 2 hours, then 25 μM H2O2 24 hours

SMILES | cell viability (MTS) (SK-HEP-1 cells [1]; [3]) | cell viability (MTS) (SK-HEP-1 cells [1]; [4]) | cell viability (MTS) (SK-HEP-1 cells [1]; [5]) | cell viability (MTS) (SK-HEP-1 cells [1]; [6]) | cell viability (MTS) (SK-HEP-1 cells [1]; [7]) | cell viability (MTS) (SK-HEP-1 cells [1]; [8]) | cell viability (MTS) (SK-HEP-1 cells [1]; [9]) | cell viability (MTS) (SK-HEP-1 cells [1]; [10]) | cell viability (MTS) (SK-HEP-1 cells [1]; [11]) | cell viability (MTS) (SK-HEP-1 cells [1]; [12]) | cell viability (MTS) (SK-HEP-1 cells [1]; [13]) | cell viability (MTS) (SK-HEP-1 cells [1]; [14]) | cell viability (MTS) (SK-HEP-1 cells [1]; [15]) | cell viability (MTS) (SK-HEP-1 cells [1]; [16]) | cell viability (MTS) (SK-HEP-1 cells [1]; [17]) | cell viability (MTS) (SK-HEP-1 cells [1]; [18]) | cell viability (MTS) (SK-HEP-1 cells [1]; [19]) | cell viability (MTS) (SK-HEP-1 cells [1]; [20]) | also measured
C/C1=C2N=C(/C=C3N=C(/C(C)=C4\[N-]C(C(CC(N)=O)C4(C)CCC(=O)NCC(C)OP(=O)([O-])OC4C(CO)OC(n5cnc6cc(C)c(C)cc65)C4O)C4(C)N=C1C(CCC(N)=O)C4(C)CC(N)=O)C(CCC(N)=O)C\3(C)C)C(CCC(N)=O)C/2(C)CC(N)=O.NC(CCC(=O)NC(C[S-])C(=O)NCC(=O)O)C(=O)O.[Co+3] (stereo not drawn) [GSCbl, Glutathionylcobalamin, reference compound] | 99.24 and 102.2264 and 105.5898 and 103.6002 and 104.0265 and 104.5476 | 96.12 and 98.39 and 97.3946 and 98.0578 and 96.02 and 95.31 | 93.56 and 90.81 (2×) and 92.33 and 88.25 and 91.8522 | 40.31 and 91.33 and 87.3046 and 82.33 and 79.77 and 77.59 | 36.52 and 39.7442 and 34.49 and 34.72 and 34.86 and 36.1 | 29.7963 and 32.02 and 36.1 and 32.4 and 29.99 and 33.92 | 23.54 and 26.53 and 22.93 and 24.44 and 22.03 and 20.42 | 15.02 and 20.8432 and 18.95 and 13.12 and 15.6324 and 17.62 | 10.8 and 12.36 and 11.5585 and 9.995 and 6.679 and 8.527 | 1.326 and 7.153 and 3.6 and 1.942 and 5.921 and 0.7579 | 6.061 and 1.12 and 2.635 | 20.88 and 30.9 and 21.34 and 26.8116 and 19.5 and 29.25 | 48.68 and 56.26 and 45.98 and 43.35 and 42.09 and 41.96 | 44.27 and 54.35 and 50.53 and 47.04 and 44.14 and 42.09 | 41.24 and 45.5863 and 42.23 and 45.26 and 41.7 and 44.99 | 42.69 and 45.72 and 48.16 and 46.9 and 46.77 and 51.84 | 64.62 (2×) and 77.87 and 71.61 and 72.6 and 76.5481 | 94.07 and 100.0659 and 102.8327 and 93.87 and 105.5995 and 94.73 | 
CC(=O)NC(C[S-])C(=O)O.CC1=C2N=C(C=C3N=C(C(C)=C4[N-]C(C(CC(N)=O)C4(C)CCC(=O)NCC(C)OP(=O)([O-])OC4C(CO)OC(n5cnc6cc(C)c(C)cc65)C4O)C4(C)N=C1C(CCC(N)=O)C4(C)CC(N)=O)C(CCC(N)=O)C3(C)C)C(CCC(N)=O)C2(C)CC(N)=O.[Co+3] [NACCbl, N-acetyl-L-cysteinylcobalamin] | 102.9844 and 100.8053 and 103.2212 and 107.9583 and 101.8948 and 98.44 | 93.46 and 102.7949 and 99.24 and 101.3738 and 103.2686 and 95.45 | 98.53 and 91.38 and 98.72 and 100.1421 and 89.77 and 96.12 | 88.2 and 93.18 and 92.89 and 99.76 and 92.42 and 91.8 | 88.2 and 87.59 and 82.14 and 81.57 and 78.07 and 77.12 | 77.17 and 76.98 and 76.6 and 67.12 and 77.6883 and 74.14 | 67.12 and 66.75 and 61.87 and 56.18 and 55.3766 and 55.95 | 50.21 and 48.27 and 44.955 and 45.71 and 48.18 and 44.58 | 29.99 and 23.97 and 19.56 and 18.901 and 17.53 and 20.89 | 5.2108 and 7.153 and 1.99 and 0.6632 | 4.677 and 1.845 and 5.27 and 1.647 and 4.348 and 5.599 | 26.8116 and 19.5 and 35.84 and 30.5 and 35.24 and 33 | 42.8195 and 42.09 and 39.39 and 30.9 and 28 and 38.4058 | 45.26 and 41.7 and 44.99 and 45.5863 and 42.23 and 47.36 | 46.9 and 46.77 and 45.26 and 42.69 and 45.72 and 48.16 | 56.65 and 49.93 (2×) and 60.2108 and 63.24 and 57.11 | 61.5942 and 56.59 and 70.22 and 74.37 and 64.23 and 61.79 | 100.7246 and 99.7365 and 101.8445 and 107.3123 and 92.69 and 97.56 | Mean cell viability (MTS, FIG. 12), normalized to 0 Hcy = 100 (SK-HEP-1 cells [2]; Hcy 0): 100; Mean cell viability (MTS, FIG. 12), normalized to 0 Hcy = 100 (SK-HEP-1 cells [2]; Hcy 1.78 (μM) two hours, where named): 97.05; Mean cell viability (MTS, FIG. 12), normalized to 0 Hcy = 100 (SK-HEP-1 cells [2]; Hcy 3.125 (μM) two hours, where named): 91.34; Mean cell viability (MTS, FIG. 12), normalized to 0 Hcy = 100 (SK-HEP-1 cells [2]; Hcy 6.25 (μM) two hours, where named): 89.85; Mean cell viability (MTS, FIG. 12), normalized to 0 Hcy = 100 (SK-HEP-1 cells [2]; Hcy 12.5 (μM) two hours, where named): 82.84; Mean cell viability (MTS, FIG. 12), normalized to 0 Hcy = 100 (SK-HEP-1 cells [2]; Hcy 25 (μM) two hours, where named): 73.76; Mean cell viability (MTS, FIG. 12), normalized to 0 Hcy = 100 (SK-HEP-1 cells [2]; Hcy 50 (μM) two hours, where named): 59.07; Mean cell viability (MTS, FIG. 12), normalized to 0 Hcy = 100 (SK-HEP-1 cells [2]; Hcy 100 (μM) two hours, where named): 55.17; Mean cell viability (MTS, FIG. 12), normalized to 0 Hcy = 100 (SK-HEP-1 cells [2]; Hcy 200 (μM) two hours, where named): 43.9595
